Results taken from US20070003517A1 (UNIVERSITY OF MASSACHUSETTS, published 2007).
Results are given in words; binding and its absence hold for the method and conditions named. Binding seen in cells or lysates may run through a third protein. Some results given as binding are weak or reduced against the parent protein; the word gives no strength. Sequences can lack the tags named with a protein.

Sequences of proteins named here, by UniProt entry; tags and fusion partners are left off. A change or cut given only in a name is not applied to a line headed by its entry. A line that says so, or that is headed by a name, gives the form on record, which may keep a tag or linker. Residues count along the entry.
Flag epitope-tagged JNK1 (cell lysate) (P45983-2, form named): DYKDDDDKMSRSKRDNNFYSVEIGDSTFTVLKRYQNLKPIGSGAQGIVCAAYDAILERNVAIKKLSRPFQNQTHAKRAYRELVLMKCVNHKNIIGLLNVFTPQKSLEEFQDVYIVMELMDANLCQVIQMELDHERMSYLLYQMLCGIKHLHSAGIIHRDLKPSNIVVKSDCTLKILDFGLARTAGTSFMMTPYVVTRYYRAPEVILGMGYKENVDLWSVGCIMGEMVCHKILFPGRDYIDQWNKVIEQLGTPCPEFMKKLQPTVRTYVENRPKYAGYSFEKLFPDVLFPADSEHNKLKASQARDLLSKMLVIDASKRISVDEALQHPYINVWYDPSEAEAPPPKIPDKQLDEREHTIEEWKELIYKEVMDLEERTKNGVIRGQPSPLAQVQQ
HA-JNK1 (epitope (HA) tagged JNK1) (P45983-2, form named): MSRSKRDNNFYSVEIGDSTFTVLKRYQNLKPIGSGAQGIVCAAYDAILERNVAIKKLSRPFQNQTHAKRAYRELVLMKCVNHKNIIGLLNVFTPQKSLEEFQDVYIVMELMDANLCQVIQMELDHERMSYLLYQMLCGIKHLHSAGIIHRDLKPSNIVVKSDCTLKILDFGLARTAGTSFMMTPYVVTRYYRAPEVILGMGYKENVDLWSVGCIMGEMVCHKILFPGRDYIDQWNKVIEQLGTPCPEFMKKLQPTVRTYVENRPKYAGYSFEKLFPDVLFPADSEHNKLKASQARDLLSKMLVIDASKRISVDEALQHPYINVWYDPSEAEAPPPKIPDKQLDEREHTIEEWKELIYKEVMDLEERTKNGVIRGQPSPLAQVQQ
UniProt P05412, residues 1-79: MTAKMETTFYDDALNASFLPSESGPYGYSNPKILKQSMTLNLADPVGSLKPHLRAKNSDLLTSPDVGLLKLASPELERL

B1: GST-JIP-1 fusion protein containing residues 127-202 of JIP-1 (protein, not shown: a dimerising Fc or GST)
chain: PKAESNQDPAPRSQGQGPGTGSGDTYRPKRPTTLNLFPQVPRSQDTLNNNSLGKKHSWQDRVSRSSSPLKTGEQTP
B2: GST fusion protein containing residues 135-202 of JIP-1 (protein, not shown: a dimerising Fc or GST)
chain: PAPRSQGQGPGTGSGDTYRPKRPTTLNLFPQVPRSQDTLNNNSLGKKHSWQDRVSRSSSPLKTGEQTP
B3: GST fusion protein containing residues 144-202 of JIP-1 (protein, not shown: a dimerising Fc or GST)
chain: PGTGSGDTYRPKRPTTLNLFPQVPRSQDTLNNNSLGKKHSWQDRVSRSSSPLKTGEQTP
B4: GST-JIP-1 (residues 127-281), GST fusion of the JNK binding domain (JBD) of JIP-1 (protein, not shown: a dimerising Fc or GST)
chain: PKAESNQDPAPRSQGQGPGTGSGDTYRPKRPTTLNLFPQVPRSQDTLNNNSLGKKHSWQDRVSRSSSPLKTGEQTPPHEHICLSDELPPQGSPVPTQDRGTSTDSPCRRSAATQMAPPSGPPATAPGGRGHSHRDRIHYQADVRLEATEEIYLTP
B5: GST-ATF2 fusion protein (residues 1-109 of ATF2) (protein, UniProt P15336 1-109, looked up, not shown: a dimerising Fc or GST)
chain: MKFKLHVNSARQYKDLWNMSDDKPFLCTAPGCGQRFTNEDHLAVHKHKHEMTLKFGPARNDSVIVADQTPTPTRFLKNCEEVGLFNELASPFENEFKKASEDDIKKMPL
B6: Flag-JIP-1 (Flag epitope-tagged murine JNK interacting protein-1, full length) (protein)
chain: MDYKDDDDKAERESGLGGGAASPPAASPFLGLHIASPPNFRLTHDISLEEFEDEDLSEITDECGISLQCKDTLSLRPPRAGLLSAGSSGSAGSRLQAEMLQMDLIDAAGDTPGAEDDEEEEDDELAAQRPGVGPPKAESNQDPAPRSQGQGPGTGSGDTYRPKRPTTLNLFPQVPRSQDTLNNNSLGKKHSWQDRVSRSSSPLKTGEQTPPHEHICLSDELPPQGSPVPTQDRGTSTDSPCRRSAATQMAPPSGPPATAPGGRGHSHRDRIHYQADVRLEATEEIYLTPVQRPPDPAEPTSTFMPPTESRMSVSSDPDPAAYSVTAGRPHPSISEEDEGFDCLSSPERAEPPGGGWRGSLGEPPPPPRASLSSDTSALSYDSVKYTLVVDEHAQLELVSLRPCFGDYSDESDSATVYDNCASASSPYESAIGEEYEEAPQPRPPTCLSEDSTPDEPDVHFSKKFLNVFMSGRSRSSSAESFGLFSCVINGEEHEQTHRAIFRFVPRHEDELELEVDDPLLVELQAEDYWYEAYNMRTGARGVFPAYYAIEVTKEPEHMAALAKNSCVLEISVRGVKIGVKADDALEAKGNKCSHFFQLKNISFCGYHPKNNKYFGFITKHPADHRFACHVFVSEDSTKALAESVGRAFQQFYKQFVEYTCPTEDIYLE

target: T1, Flag epitope-tagged JNK1 (cell lysate) (human, UniProt P45983-2 1-384, limits assumed); experiment: GST pull-down from cell lysate, immunoblot
T1 construct: written N-terminal here

Row | Molecule | binding
1 | B1 | binds
2 | B2 | binds
3 | B3 | binds
4 | PKRPTTLNLFPQVPRSQDTLNNNSLGKKHSWQDRVSRSSSPLKTGEQTP (peptide, not shown: a dimerising Fc or GST) [GST fusion protein containing residues 154-202 of JIP-1] | binds

target: T1, Flag epitope-tagged JNK1 (cell lysate); experiment: GST pull-down from cell lysate, anti-Flag (M2) immunoblot
Description: To test whether JIP-1 binding to JNK is also isoform-dependent, a binding assay was utilized. Cell lysates (1 ml in TLB) containing JNK1, JNK2, or p38 MAP kinase, each tagged with the Flag epitope, were incubated with 5 μg GST-fusion proteins pre-bound to 10 μl glutathione-Sepharose. […] The GST-ATF2 fusion protein contains residues 1-109 of ATF2, and the GST-Jun fusion protein contains residues 1-79 of c-Jun. After incubation for one hour at 4° C. and three washes with TLB, bound proteins were detected by protein immunoblot analysis with the M2 monoclonal antibody, which is specific for the Flag epitope. Dérijard, et al., supra; Sluss et al., supra; Gupta et al., supra. When ATF2 or c-jun GST fusion proteins were used in this assay, binding to JNK1 was greater than binding to JNK2. This finding is consistent with the results of previous studies. […] The level of binding of these fusion proteins to JNK1 was similar to the level of binding to JNK2.

Row | Molecule | binding
5 | GST-Jun fusion protein (residues 1-79 of c-Jun) (from UniProt P05412 1-79) | binds
6 | B4 | binds
7 | B1 | binds
8 | B5 | binds

target: HA-JNK1 (epitope (HA) tagged JNK1) (UniProt P45983); experiment: co-immunoprecipitation from transfected COS-1 cells, immunoblot

Row | Molecule | binding
9 | B6 | binds
